Test results as given in article PMC5433425 (PeerJ, 2017).
The source gives many values for each of these; only a part stands here.

Tested on: E. coli AG100
Assay: EtBr efflux by real-time fluorometry
Settings: 80 µM

**Q.** How did the “EtBr fluorescence (Channel Cycling A.530/585hp)” value (from here on “EtBr fluorescence”) (cycle 1, without glucose) turn out when `CCCOc1ccc(-c2cc(OCCN3CCNCC3)c3ccccc3n2)cc1` [PQQ4R, 4-(2-(piperazin-1-yl)ethoxy)-2-(4-propoxyphenyl) quinolone] was run?
**A.** The value was 11.6793.

**Q.** And the “EtBr fluorescence” value (cycle 2, without glucose)?
**A.** Its value is 11.5754.

**Q.** What about the “EtBr fluorescence” value (cycle 3, without glucose) of the same compound?
**A.** Its value is 11.468.

**Q.** And the “EtBr fluorescence” value (cycle 4, + glucose)?
**A.** The value was 11.2886.

**Q.** What about the “EtBr fluorescence” value (cycle 4, without glucose) of the same compound?
**A.** The value was 11.3183.

**Q.** And the “EtBr fluorescence” value (cycle 5, + glucose)?
**A.** The value was 10.7898.

**Q.** And the “EtBr fluorescence” value (cycle 5, without glucose)?
**A.** The value was 11.1947.

**Q.** What about the “EtBr fluorescence” value (cycle 6, + glucose) of the same compound?
**A.** Its value is 10.0917.

**Q.** What about the “EtBr fluorescence” value (cycle 6, without glucose) of the same compound?
**A.** Its value is 11.1944.

**Q.** And the “EtBr fluorescence” value (cycle 7, + glucose)?
**A.** Its value is 9.745.

**Q.** What about the “EtBr fluorescence” value (cycle 7, without glucose) of the same compound?
**A.** Its value is 11.3.

**Q.** And the “EtBr fluorescence” value (cycle 8, + glucose)?
**A.** Its value is 9.179.

**Q.** What about the “EtBr fluorescence” value (cycle 8, without glucose) of the same compound?
**A.** The value was 11.1059.

**Q.** And the “EtBr fluorescence” value (cycle 9, without glucose)?
**A.** The value was 11.2636.

**Q.** What about the “EtBr fluorescence” value (cycle 10, without glucose) of the same compound?
**A.** Its value is 10.8414.

**Q.** And the “EtBr fluorescence” value (cycle 11, without glucose)?
**A.** The value was 11.0568.

**Q.** And the “EtBr fluorescence” value (cycle 12, without glucose)?
**A.** Its value is 10.9275.

**Q.** What about the “EtBr fluorescence” value (cycle 13, without glucose) of the same compound?
**A.** The value was 11.0785.

**Q.** What about the “EtBr fluorescence” value (cycle 14, without glucose) of the same compound?
**A.** Its value is 10.9901.

**Q.** And the “EtBr fluorescence” value (cycle 15, without glucose)?
**A.** The value was 11.0607.

**Q.** What about the “EtBr fluorescence” value (cycle 16, without glucose) of the same compound?
**A.** The value was 10.956.

**Q.** What about the “EtBr fluorescence” value (cycle 17, without glucose) of the same compound?
**A.** Its value is 10.8466.

**Q.** What about the “EtBr fluorescence” value (cycle 18, without glucose) of the same compound?
**A.** The value was 11.0904.

**Q.** What about the “EtBr fluorescence” value (cycle 19, without glucose) of the same compound?
**A.** Its value is 11.0539.

**Q.** What about the “EtBr fluorescence” value (cycle 20, without glucose) of the same compound?
**A.** The value was 10.9923.

**Q.** And the “EtBr fluorescence” value (cycle 21, without glucose)?
**A.** The value was 11.0261.

**Q.** And the “EtBr fluorescence” value (cycle 22, without glucose)?
**A.** Its value is 11.0073.

**Q.** And the “EtBr fluorescence” value (cycle 23, without glucose)?
**A.** The value was 10.9912.

**Q.** What about the “EtBr fluorescence” value (cycle 24, without glucose) of the same compound?
**A.** Its value is 10.9329.

**Q.** And the “EtBr fluorescence” value (cycle 25, without glucose)?
**A.** Its value is 11.0553.

**Q.** And the “EtBr fluorescence” value (cycle 26, without glucose)?
**A.** The value was 11.0163.

**Q.** And the “EtBr fluorescence” value (cycle 27, without glucose)?
**A.** Its value is 10.8243.

**Q.** What about the “EtBr fluorescence” value (cycle 28, without glucose) of the same compound?
**A.** Its value is 10.8258.

**Q.** What about the “EtBr fluorescence” value (cycle 29, without glucose) of the same compound?
**A.** Its value is 10.6446.

**Q.** And the “EtBr fluorescence” value (cycle 30, without glucose)?
**A.** Its value is 10.8079.

**Q.** What about the “EtBr fluorescence” value (cycle 31, without glucose) of the same compound?
**A.** The value was 10.6956.

**Q.** What about the “EtBr fluorescence” value (cycle 32, without glucose) of the same compound?
**A.** The value was 10.7933.

**Q.** And the “EtBr fluorescence” value (cycle 33, without glucose)?
**A.** Its value is 10.482.

**Q.** And the “EtBr fluorescence” value (cycle 34, without glucose)?
**A.** The value was 10.487.

**Q.** What about the “EtBr fluorescence” value (cycle 35, without glucose) of the same compound?
**A.** The value was 10.51.

**Q.** And the “EtBr fluorescence” value (cycle 36, without glucose)?
**A.** The value was 10.4202.

**Q.** And the “EtBr fluorescence” value (cycle 37, without glucose)?
**A.** The value was 10.3049.

**Q.** What about the “EtBr fluorescence” value (cycle 38, without glucose) of the same compound?
**A.** The value was 10.3401.

**Q.** And the “EtBr fluorescence” value (cycle 39, without glucose)?
**A.** The value was 10.1025.

**Q.** And the “EtBr fluorescence” value (cycle 40, without glucose)?
**A.** Its value is 10.1044.

**Q.** What about the “EtBr fluorescence” value (cycle 41, without glucose) of the same compound?
**A.** The value was 10.038.

**Q.** And the “EtBr fluorescence” value (cycle 42, without glucose)?
**A.** The value was 10.0003.

**Q.** And the “EtBr fluorescence” value (cycle 43, without glucose)?
**A.** Its value is 9.817.

**Q.** What about the “EtBr fluorescence” value (cycle 44, without glucose) of the same compound?
**A.** Its value is 9.3904.

**Q.** And the “EtBr fluorescence” value (cycle 45, + glucose)?
**A.** The value was 4.671.

**Q.** And the “EtBr fluorescence” value (cycle 45, without glucose)?
**A.** The value was 9.635.

**Q.** What about the “EtBr fluorescence” value (cycle 46, + glucose) of the same compound?
**A.** The value was 4.673.

**Q.** What about the “EtBr fluorescence” value (cycle 46, without glucose) of the same compound?
**A.** Its value is 9.453.

**Q.** And the “EtBr fluorescence” value (cycle 47, + glucose)?
**A.** Its value is 4.6309.

**Q.** What about the “EtBr fluorescence” value (cycle 47, without glucose) of the same compound?
**A.** The value was 9.538.

**Q.** And the “EtBr fluorescence” value (cycle 48, + glucose)?
**A.** The value was 4.562.

**Q.** And the “EtBr fluorescence” value (cycle 48, without glucose)?
**A.** The value was 9.52.

**Q.** And the “EtBr fluorescence” value (cycle 49, + glucose)?
**A.** The value was 4.578.

**Q.** What about the “EtBr fluorescence” value (cycle 49, without glucose) of the same compound?
**A.** The value was 9.39.

**Q.** And the “EtBr fluorescence” value (cycle 50, + glucose)?
**A.** Its value is 4.519.

**Q.** What about the “EtBr fluorescence” value (cycle 50, without glucose) of the same compound?
**A.** The value was 9.396.

**Q.** What about the “EtBr fluorescence” value (cycle 51, + glucose) of the same compound?
**A.** The value was 4.498.

**Q.** And the “EtBr fluorescence” value (cycle 51, without glucose)?
**A.** The value was 9.2188.

**Q.** And the “EtBr fluorescence” value (cycle 52, + glucose)?
**A.** The value was 4.498.

**Q.** What about the “EtBr fluorescence” value (cycle 52, without glucose) of the same compound?
**A.** The value was 9.1371.

**Q.** And the “EtBr fluorescence” value (cycle 53, + glucose)?
**A.** The value was 4.422.

**Q.** What about the “EtBr fluorescence” value (cycle 53, without glucose) of the same compound?
**A.** The value was 9.1784.

**Q.** What about the “EtBr fluorescence” value (cycle 54, + glucose) of the same compound?
**A.** Its value is 4.425.

**Q.** What about the “EtBr fluorescence” value (cycle 54, without glucose) of the same compound?
**A.** The value was 9.1862.

**Q.** And the “EtBr fluorescence” value (cycle 55, + glucose)?
**A.** Its value is 4.3.

**Q.** And the “EtBr fluorescence” value (cycle 55, without glucose)?
**A.** The value was 9.022.

**Q.** What about the “EtBr fluorescence” value (cycle 56, + glucose) of the same compound?
**A.** Its value is 4.316.

**Q.** What about the “EtBr fluorescence” value (cycle 56, without glucose) of the same compound?
**A.** Its value is 8.907.

**Q.** And the “EtBr fluorescence” value (cycle 57, + glucose)?
**A.** The value was 4.269.

**Q.** What about the “EtBr fluorescence” value (cycle 57, without glucose) of the same compound?
**A.** Its value is 9.017.

**Q.** And the “EtBr fluorescence” value (cycle 58, + glucose)?
**A.** The value was 4.404.

**Q.** What about the “EtBr fluorescence” value (cycle 58, without glucose) of the same compound?
**A.** The value was 8.904.

**Q.** And the “EtBr fluorescence” value (cycle 59, + glucose)?
**A.** The value was 4.331.

**Q.** And the “EtBr fluorescence” value (cycle 59, without glucose)?
**A.** The value was 9.036.

**Q.** And the “EtBr fluorescence” value (cycle 60, + glucose)?
**A.** The value was 4.366.

**Q.** And the “EtBr fluorescence” value (cycle 60, without glucose)?
**A.** Its value is 8.8341.

**Q.** And the “EtBr fluorescence” value (cycle 61, + glucose)?
**A.** The value was 4.262.

**Q.** And the “EtBr fluorescence” value (cycle 61, without glucose)?
**A.** The value was 8.869.
